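Compounds were printed on reactive glass slides in duplicate spots, a dye-labelled oligonucleotide was laid over them, and the fluorescence left after washing was read. For the PreQ1, TPP and SAM-II riboswitches the laboratory earlier reported (doi:10.1038/s41467-019-09493-3) 1 µM RNA, 2 h, and a rule that included a mean Z-score above 3 (spot signal-to-noise against the whole library), a score well above that on a control array, and duplicate spots agreeing (coefficient of variation under 100). The data file gives only the calls; its cut-offs may differ, and compounds hitting several targets are kept. The calls come from the array alone, and fixing a compound to the slide can hide its binding.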 “1” means called a hit, “0” means screened and not called a hit. This is an unselected part of the compounds tested. A target missing from an entry has no call listed here. A dash means that no call is listed here.

Oligonucleotides screened, 5′ to 3′:
T1: TPP riboswitch RNA three-way junction, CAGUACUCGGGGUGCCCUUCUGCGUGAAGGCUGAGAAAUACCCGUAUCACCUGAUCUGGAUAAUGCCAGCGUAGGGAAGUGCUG. Hit rate about 0.7% of about 24,000 compounds.
T2: PreQ1 riboswitch RNA pseudoknot, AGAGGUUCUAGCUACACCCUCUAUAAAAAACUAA. From B. subtilis. Hit rate about 0.7% of about 24,000 compounds.
T3: SAM-II riboswitch RNA pseudoknot, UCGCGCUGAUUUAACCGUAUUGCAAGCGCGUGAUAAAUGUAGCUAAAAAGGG. Hit rate about 1% of about 21,000 compounds.

compound,T1,T2,T3
CCCCCCN1CC(=O)C(c2nc3ccccc3s2)=C1N,0,0,-
NC(=O)C1=C(Nc2cccc(C(F)(F)F)c2)c2ccccc2S1(=O)=O,0,0,-
CCC[C@@H]1CN(C(=O)CNc2ccccc2F)C[C@H]1NC(C)=O,0,0,0
CCN(C(=O)c1cc(C)oc1-c1ccccc1)C(C)CO (centres undefined),0,0,0
CCOc1ccccc1[C@H]1C[C@@H](c2ccccc2)Nc2nc(N)nn21,0,0,0
OC(CNC1CC1)Cn1c2ccccc2c2ccccc21 (centres undefined),0,0,0
C=CCc1ccc(O)c(-c2ccc(O)c(CC=C)c2)c1,0,0,0
Cc1cc(C)n(-c2nc3cc(Cl)ccc3nc2NCc2ccccc2)n1,0,0,-
CCc1cccc(NC(=O)CN(C)S(=O)(=O)c2cc(Br)cnc2N)c1,0,0,-
Cc1ccc(C(C)C)cc1OCC(O)Cn1cnc2ccccc21 (centres undefined),0,0,0
NCCN1CCCCC1CCc1cccs1 (centres undefined),0,0,0
O=C(COc1ccc(NC2=NS(=O)(=O)c3ccccc32)cc1)N1CCOCC1,0,0,-
CCN(C)C[C@@H]1CN(c2cncc(C(=O)O)n2)C[C@@H]1CO,0,0,0
CC1CCCCC1Nc1c(-c2ccccc2)c(=O)c1=O (centres undefined),0,0,-
CC(O)(c1ccccc1)C(c1ccccc1)C1CCCCN1 (centres undefined),0,0,0
Cc1ccc(C(N)=O)c(N2CCC3(CC2)NCCNC3=O)n1,0,0,0
COc1cc(-c2nc3[nH]cnn3c2Nc2ccc(C)cc2)ccc1O,0,0,0
O=C(NCc1cccnc1)c1nn(-c2ccc(Cl)cc2)nc1CO,0,0,-
COC(=O)[C@H](Cc1ccc(O)cc1)NCc1cnc(-c2cccc(C)c2)nc1,0,0,0
CN1C[C@H](NC(=O)c2cccc(NCc3ccc(F)cc3)c2)C[C@H]1CO,0,0,0
COc1ccc(CNCc2ccc(-c3ccc(Br)cc3)o2)cc1,0,0,-
COc1ccc(CNc2c(S(=O)(=O)c3ccccc3)cnc3ccc(Cl)cc23)cc1,0,0,-
Cc1ccc(S(=O)(=O)Nc2cccc(C(=O)NC(C)(C)CO)c2)cc1,0,0,0
Cc1sc2nc(CNC(=O)CCc3cc4n(n3)CCCNC4)cn2c1C,0,0,0
CCOC(=O)c1ccc(NC(=O)Oc2cc(C)c(Cl)cc2C(C)C)cc1,0,0,0
CCCN1C(=O)c2ccccc2NC1c1cccc(F)c1 (centres undefined),0,0,0
Clc1ccc(C23Nc4ccc(Br)cc4C2(c2ccc(Cl)cc2)Nc2ccc(Br)cc23)cc1 (centres undefined),0,0,0
O=c1c2nnc3c(-c4ccccc4)cnn3c2ccn1CCO,0,0,0
O=C(O)c1cc(O)ccc1/N=N/c1ccccc1,0,0,0
Cc1cccc(N2C(N)=C(C#N)C3(C(=O)N(Cc4cccc(F)c4)c4ccccc43)C3=C2COC3=O)c1 (centres undefined),0,0,0
COc1ccc(CNC(=O)c2nnn(Cc3ccc(OC)cc3)c2N)cc1,0,0,0
COc1ccc(C(=O)N2C[C@H](C3CC3)[C@@H](N)C2)o1,0,0,0
O=C(CCc1cccnc1)N1CC[C@@H](c2ccc3c(c2)OCO3)[C@H](O)C1,0,0,0
CC1(C)CC(=O)C2=C(C1)OC(N)=C(C(=O)OC(C)(C)C)C21C(=O)Nc2ccccc21 (centres undefined),0,0,0
CCc1ccc(CNC(=O)c2cccc(S(=O)(=O)NCC(C)O)c2)nc1 (centres undefined),0,0,0
CCCc1n(CC(O)COCc2ccccc2)c2ccccc2[n+]1C (centres undefined),0,0,0
CC(C)c1cc(Nc2cccc(C(F)(F)F)c2)n2nc(-c3cccnc3)nc2n1,0,0,-
CC1COC2(CCN(c3nc(=O)c4cc(C(F)(F)F)cc([N+](=O)[O-])c4s3)CC2)O1 (centres undefined),0,0,0
Cc1cc([C@H]2C[C@H]3CC[C@@H](C2)N3C(=O)c2cn3c(n2)CNCC3)ccc1F,0,0,0
c1nc2c(c(NCc3nnc4n3CCC4)n1)CCNCC2,0,0,0
COc1ccc2c(c1)OCC(Cc1ccc(N)nc1C)C2 (centres undefined),0,0,0
CCc1nc2ccccc2n1CC(O)COc1ccc(C(=O)OC)cc1 (centres undefined),0,0,0
Cc1ccc(C)c(Nc2nc(-c3ccccn3)cs2)c1,0,0,0
NCc1c[nH]c(=S)n1[C@H]1CCc2c(F)cc(F)cc2C1,0,0,0
Cc1ccn2c(=O)c(C(=O)NCCOCCO)c(O)nc2c1,0,0,0
COc1cc(C2C(C#N)=C(N)Oc3[nH]nc(C)c32)ccc1OCc1ccccc1 (centres undefined),0,0,0
Cc1cn(C2CC(O)C(CO)O2)c(=O)n(Cc2ccccc2)c1=O (centres undefined),0,0,0
CO[C@H]1C[C@@H](O)C12CCN(C(=O)c1cc(C)nc(C)c1)CC2,0,0,0
O=S1(=O)CCC(NCCO)C1 (centres undefined),0,0,0
Clc1ccc2nc(-c3ccco3)c(Nc3ccccc3)n2c1,0,0,0
Cc1ccc2c(C)c(C(=O)NCc3c(C)ncc4c3CCNC4)oc2c1,0,0,0
c1nc2nc(Nc3ccc(N4CCOCC4)cc3)nc(NC3CCCCC3)c2[nH]1,0,0,0
ON/C(=N\Cc1ccccc1)c1ccccc1,0,0,0
CCOC(=O)CSc1nc(NC#N)nc(N(CC)CC)n1,0,0,0
O=C1c2ccccc2NC(c2cc(Cl)cc(Cl)c2O)N1CCc1ccccn1 (centres undefined),0,0,0
O=c1c2c(nc(NCCCO)n1-c1ccccc1)-c1ccccc1CC21CCCCC1,0,0,0
Cc1cc(N2CC[C@@H](N3CCOCC3)[C@H](O)C2)c2cc3c(cc2n1)OCO3,0,0,0
CCOC(=O)c1c(N)c(C#N)c2n1CCCCC2,0,0,0
Cc1ccc(OC2(C(=O)NC(C)c3nnn[nH]3)CCNCC2)cc1 (centres undefined),0,0,0
O=C1N(Cc2ccccc2)CCC12CCN(CC1(O)CCCNC1)CC2 (centres undefined),0,0,0
Nc1ccc(N2CCCCC2)cc1C(=O)N1CCCCC1,0,0,-
CC1=C(c2ccccc2)S(=O)(=O)N=C1NCc1ccc(C)cc1,0,0,-
O=C1c2ccccc2-[n+]2ccc3c([nH]c4ccccc43)c21,0,0,0
Cc1c(C(=O)c2sc3ncccc3c2N)c2ccccc2n1C,0,0,0
CCOc1nc(NC(C)(C)CO)nc(OCC)n1,0,0,0
Cc1ccc(-n2nnnc2-c2sc3nc(C)cc(C)c3c2N)c(C)c1,0,0,0
CC(O)C(CO)NC(=O)C1CSSCC(NC(=O)C(N)Cc2ccccc2)C(=O)NC(Cc2ccccc2)C(=O)NC(Cc2c[nH]c3ccccc23)C(=O)NC(CCCCN)C(=O)NC(C(C)O)C(=O)N1 (centres undefined),0,0,0
COc1ccc(-c2noc(-c3cccnc3NCc3cccnc3)n2)cc1,0,0,-

The last 5 entries again:

* Cc1c(C(=O)c2sc3ncccc3c2N)c2ccccc2n1C | T1: 0; T2: 0; T3: 0
* CCOc1nc(NC(C)(C)CO)nc(OCC)n1 | T1: 0; T2: 0; T3: 0
* Cc1ccc(-n2nnnc2-c2sc3nc(C)cc(C)c3c2N)c(C)c1 | T1: 0; T2: 0; T3: 0
* CC(O)C(CO)NC(=O)C1CSSCC(NC(=O)C(N)Cc2ccccc2)C(=O)NC(Cc2ccccc2)C(=O)NC(Cc2c[nH]c3ccccc23)C(=O)NC(CCCCN)C(=O)NC(C(C)O)C(=O)N1 (centres undefined) | T1: 0; T2: 0; T3: 0
* COc1ccc(-c2noc(-c3cccnc3NCc3cccnc3)n2)cc1 | T1: 0; T2: 0

From ROBIN, a set of small-molecule microarray screens (doi:10.1002/anie.202211358).